According to patent publication US12419870B2, “Compositions and methods for immune cell modulation in adoptive immunotherapies” (Fate Therapeutics, Inc., priority 2016, dated 2025):
At least one structure is not confirmed: it was looked up by name or label, or the drawing left a doubt.

System: Nalm-6-luc
Test: In vivo efficacy of cryopreserved compound-treated CAR-T cells in tumor-bearing NSG mice
Settings: suboptimal dose 0.2×10^6; four mice per group

**Q.** Which survival of mice does the source give for `CO[C@H]1C[C@@H]2CC[C@@H](C)[C@@](O)(O2)C(=O)C(=O)N2CCCC[C@H]2C(=O)O[C@H]([C@H](C)C[C@@H]2CC[C@@H](O)[C@H](OC)C2)CC(=O)[C@H](C)/C=C(\C)[C@@H](O)[C@@H](OC)C(=O)[C@H](C)C[C@H](C)/C=C/C=C/C=C/1C` [rapamycin] here?
**A.** did not survive beyond 30 and 45 days
